{"source": "paper PMC3112164", "target": "c-met receptor tyrosine kinase (human (endogenous in SRB12-p9)), P08581", "test": "co-IP; IP experiments from WT and S3DN cells; data not shown", "details": "remark: other sources report otherwise", "note": "No constants are given. Whether binding was seen depends on the method and setting. Binding seen in cells or lysates may run through a third protein. Some entries that bind do so weakly or less than the wild type."}
{"binder": "FAK, Q05397 1-1052 (protein) MAAAYLDPNLNHTPNSSTKTHLGTGMERSPGAMERVLKVFHYFESNSEPTTWASIIRHGDATDVRGIIQKIVDSHKVKHVACYGFRLSHLRSEEVHWLHVDMGVSSVREKYELAHPPEEWKYELRIRYLPKGFLNQFTEDKPTLNFFYQQVKSDYMLEIADQVDQEIALKLGCLEIRRSYWEMRGNALEKKSNYEVLEKDVGLKRFFPKSLLDSVKAKTLRKLIQQTFRQFANLNREESILKFFEILSPVYRFDKECFKCALGSSWIISVELAIGPEEGISYLTDKGCNPTHLADFTQVQTIQYSNSEDKDRKGMLQLKIAGAPEPLTVTAPSLTIAENMADLIDGYCRLVNGTSQSFIIRPQKEGERALPSIPKLANSEKQGMRTHAVSVSETDDYAEIIDEEDTYTMPSTRDYEIQRERIELGRCIGEGQFGDVHQGIYMSPENPALAVAIKTCKNCTSDSVREKFLQEALTMRQFDHPHIVKLIGVITENPVWIIMELCTLGELRSFLQVRKYSLDLASLILYAYQLSTALAYLESKRFVHRDIAARNVLVSSNDCVKLGDFGLSRYMEDSTYYKASKGKLPIKWMAPESINFRRFTSASDVWMFGVCMWEILMHGVKPFQGVKNNDVIGRIENGERLPMPPNCPPTLYSLMTKCWAYDPSRRPRFTELKAQLSTILEEEKAQQEERMRMESRRQATVSWDSGGSDEAPPKPSRPGYPSPRSSEGFYPSPQHMVQTNHYQVSGYPGSHGITAMAGSIYPGQASLLDQTDSWNHRPQEIAMWQPNVEDSTVLDLRGIGQVLPTHLMEERLIRQQQEMEEDQRWLEKEERFLKPDVRLSRGSIDREDGSLQGPIGNQHIYQPVGKPDPAAPPKKPPRPGAPGHLGSLASLSSPADSYNEGVKLQPQEISPPPTANLDRSNDKVYENVTGLVKAVIEMSSKIQPAPPEEYVPMVKEVGLALRTLLATVDETIPLLPASTHREIEMAQKLLNSDLGELINKMKLAQQYVMTSLQQEYKKQMLTAAHALAVDAKNLLDVIDQARLKMLGQTRPH", "values": [{"measurement": "binding", "value": "binds"}]}
